Laboratory results: PubChem BioAssay AID2685 (National Center for Advancing Translational Sciences (NCATS), 2010)
The other results are listed elsewhere or left out.

Experiment: qHTS Assay for Lipid Storage Modulators in Drosophila S3 Cells;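 also: cells counted by Cell Tracker Red CMTPX staining in the red channel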
Conditions: BODIPY lipid droplet fluorescence, 18-24 h, measured here: cell count max response, cells fed with added oleic acid
In the case of O=P(Nc1nccs1)(c1ccccc1)c1ccccc1, the cell number change is reported as -11.7%.
Work on CC(C)C(=O)NC(Sc1ccccc1)C(Cl)(Cl)Cl (stereo not drawn) yielded a cell number change of -1.65%.
For CP(=O)(Nc1ccc2c(c1)OCCO2)Oc1ccccc1 (stereo not drawn), the cell number change was -4.74%.
Molecule O=P(Nc1nc2ccccc2s1)(c1ccccc1)c1ccccc1 has a cell number change of -6.07%.
Molecule C[C@H]1OP(=O)(Oc2ccccc2)[C@H](O)[C@H](O)[C@H]1N=[N+]=[N-] (stereo partly drawn) has a cell number change of -13%.
Work on COc1ccc(OP(C)(=O)Nc2cccc(Br)c2)cc1 (stereo not drawn) yielded a cell number change of 8.59%.
Nc1ccc([As](=O)(O)c2ccc([N+](=O)[O-])cc2)cc1 showed a cell number change of 6.29%.
For C(Cc1nn[nH]n1)Cc1nn[nH]n1, the cell number change was 4.25%.
For O=[As](O)(c1ccccc1)c1ccc(O)cc1, the cell number change was 20.4%.
Work on Cc1cc(-c2cccc3ccccc23)c(C)cn1.O=[N+]([O-])c1cc([N+](=O)[O-])c(O)c([N+](=O)[O-])c1 yielded a cell number change of -22.8%.
In the case of CCOC(=O)c1ccc(NP(C)(=O)Oc2ccc(F)cc2)cc1 (stereo not drawn), the cell number change is reported as -1.84%.
For O=C(NC1CCS(=O)(=O)C1)NP(=S)(Oc1ccccc1)Oc1ccccc1 (stereo not drawn), the cell number change was 0%.
CCNC(=S)/N=C(\N)N[N+](=O)[O-] gave a cell number change of -7.54%.
c1ccc(-c2nn[nH]n2)c(-c2nn[nH]n2)c1 showed a cell number change of 6.95%.
Cc1ccc(NP(=O)(Oc2cccc(C)c2)Oc2cccc(C)c2)nc1 showed a cell number change of -5.15%.
In the case of CCOC(=O)NC(Sc1ccccc1)C(Cl)(Cl)Cl (stereo not drawn), the cell number change is reported as -11.3%.
CP(=O)(Nc1ccccc1)Oc1ccc(F)cc1 (stereo not drawn) gave a cell number change of -18.3%.
With Cc1ccccc1OP(=O)(Nc1ccccn1)Oc1ccccc1C the cell number change was -20.9%.
For CN(C)C(=O)Oc1noc2ccccc12, the cell number change was 3.1%.
With COC(=O)c1cc2c(s1)N=C(c1ccccc1)N(C)P2(=O)N1CCOCC1 (stereo not drawn) the cell number change was -14%.
For CCC(=O)N1C2C3N(C(=O)CC)C1C1N(C(=O)CC)C(C(N1C(=O)CC)N3C(=O)CC)N2C(=O)CC, the cell number change was 0%.
Work on CCN(CC)CCCOC(=O)C(O)(c1ccccc1)C1CCCCC1 (stereo not drawn) yielded a cell number change of 11.7%.
Molecule CC(C)(C)C(=O)NC(Sc1ccccc1)C(Cl)(Cl)Cl (stereo not drawn) has a cell number change of -3.86%.
Molecule CCOc1ccc(C2=NCC(CBr)S2)cc1 (stereo not drawn) has a cell number change of 0%.
COc1ccccc1OP(=O)(Nc1ccc(C)cn1)Oc1ccccc1OC gave a cell number change of 10.9%.
Work on Cc1ccc(OP(=O)(Nc2nccs2)Oc2ccc(C)cc2)cc1 yielded a cell number change of -2.11%.
Work on Clc1ccc(Cl)c(NC2=NCC(CBr)S2)c1 (stereo not drawn) yielded a cell number change of -2.12%.
In the case of CN1CCCC(OC(=O)C(c2ccccc2)c2ccccc2)C1 (stereo not drawn), the cell number change is reported as 1.78%.
COc1ccccc1OP(C)(=O)Nc1ccc(C)cc1C (stereo not drawn) showed a cell number change of 6.54%.
For CCc1ccc(OP(C)(=O)O)cc1, the cell number change was 5.35%.
Cc1c(NP(C)(=O)Oc2ccc(C(C)C)cc2)c(=O)n(-c2ccccc2)n1C (stereo not drawn) showed a cell number change of -15.5%.
Molecule Oc1ccccc1CNc1ccccn1 has a cell number change of 0%.
Cc1cc(SC(NC(=O)c2ccc(F)cc2)C(Cl)(Cl)Cl)ncn1 (stereo not drawn) gave a cell number change of 1.82%.
